Measurements taken from PMC5082686.
Results are given in words; binding and its absence hold for the method and conditions named. Binding seen in cells or lysates may run through a third protein. Some results given as binding are weak or reduced against the parent protein; the word gives no strength.

By UniProt entry, the sequences of proteins in these tests, tags left out.
UniProt Q9R117: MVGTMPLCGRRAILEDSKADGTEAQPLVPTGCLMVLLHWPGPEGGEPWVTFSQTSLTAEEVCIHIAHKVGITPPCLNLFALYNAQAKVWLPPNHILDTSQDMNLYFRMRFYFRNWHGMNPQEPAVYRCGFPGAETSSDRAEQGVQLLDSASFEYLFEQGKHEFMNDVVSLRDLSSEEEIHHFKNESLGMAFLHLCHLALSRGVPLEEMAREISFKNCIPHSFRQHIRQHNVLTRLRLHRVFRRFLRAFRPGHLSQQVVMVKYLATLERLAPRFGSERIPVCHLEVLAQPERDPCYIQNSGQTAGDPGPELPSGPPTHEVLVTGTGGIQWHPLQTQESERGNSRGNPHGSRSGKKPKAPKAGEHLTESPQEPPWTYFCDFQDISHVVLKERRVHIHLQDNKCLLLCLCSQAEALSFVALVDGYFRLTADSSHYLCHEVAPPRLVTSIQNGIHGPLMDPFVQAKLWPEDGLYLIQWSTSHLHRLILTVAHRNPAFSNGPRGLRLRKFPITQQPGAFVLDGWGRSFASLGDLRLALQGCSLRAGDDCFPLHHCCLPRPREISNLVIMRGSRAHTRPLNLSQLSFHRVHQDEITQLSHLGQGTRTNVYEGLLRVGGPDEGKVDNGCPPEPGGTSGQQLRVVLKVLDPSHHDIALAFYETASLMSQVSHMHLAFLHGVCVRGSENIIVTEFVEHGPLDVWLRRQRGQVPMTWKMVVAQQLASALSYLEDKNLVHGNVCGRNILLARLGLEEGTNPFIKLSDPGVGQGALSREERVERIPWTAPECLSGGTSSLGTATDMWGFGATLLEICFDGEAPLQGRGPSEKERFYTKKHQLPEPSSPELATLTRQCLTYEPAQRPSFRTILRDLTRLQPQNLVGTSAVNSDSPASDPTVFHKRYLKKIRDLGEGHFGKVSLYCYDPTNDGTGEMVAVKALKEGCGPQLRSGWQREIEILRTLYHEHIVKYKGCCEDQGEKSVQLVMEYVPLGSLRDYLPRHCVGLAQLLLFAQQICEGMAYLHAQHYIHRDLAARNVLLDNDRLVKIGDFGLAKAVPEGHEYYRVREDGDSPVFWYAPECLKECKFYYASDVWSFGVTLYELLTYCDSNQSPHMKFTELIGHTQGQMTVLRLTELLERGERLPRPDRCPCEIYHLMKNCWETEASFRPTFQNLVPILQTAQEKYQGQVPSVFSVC
UniProt O35864: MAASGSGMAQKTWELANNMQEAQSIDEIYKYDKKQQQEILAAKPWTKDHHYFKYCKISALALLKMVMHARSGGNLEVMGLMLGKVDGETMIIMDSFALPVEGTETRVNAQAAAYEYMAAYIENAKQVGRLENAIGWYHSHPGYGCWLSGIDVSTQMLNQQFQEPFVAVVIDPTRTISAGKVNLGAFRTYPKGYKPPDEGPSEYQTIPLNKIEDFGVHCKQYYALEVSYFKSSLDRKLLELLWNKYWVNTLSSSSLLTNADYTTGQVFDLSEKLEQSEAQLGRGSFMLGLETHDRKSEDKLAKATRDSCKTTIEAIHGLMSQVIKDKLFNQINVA
UniProt Q6IYF8: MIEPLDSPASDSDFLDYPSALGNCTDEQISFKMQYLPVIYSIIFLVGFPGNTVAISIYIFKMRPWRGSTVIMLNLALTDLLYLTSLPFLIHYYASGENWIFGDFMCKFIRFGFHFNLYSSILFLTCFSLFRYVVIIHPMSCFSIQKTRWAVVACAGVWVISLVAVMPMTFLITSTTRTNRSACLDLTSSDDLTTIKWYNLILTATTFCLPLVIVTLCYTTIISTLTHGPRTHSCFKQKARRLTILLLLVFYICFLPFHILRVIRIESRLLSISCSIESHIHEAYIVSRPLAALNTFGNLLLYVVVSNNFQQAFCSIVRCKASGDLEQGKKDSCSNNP

How the values were obtained:
[1] = target: tyrosine kinase 2 (TYK2), endogenous (mouse (endogenous in the heart, by the legend; the text says isolated cardiomyocytes)) (UniProt Q9R117); test: co-IP; RIPA protein extracts pre-cleared with Protein G/A agarose for 2 h at room temperature, incubated overnight with 5 ug of indicated antibody and 20 ul Protein G/A agarose; beads washed three times with RIPA buffer; Western blot
[2] = target: COP9 signalosome complex subunit 5 (CSN5), endogenous (mouse (endogenous in mouse heart extracts, by the legend; the text says isolated cardiomyocytes)) (UniProt O35864); test: as above

binding [1] | binding [2] | Substance
binds |  | COP9 signalosome complex subunit 5 (CSN5), endogenous (from UniProt O35864 1-334)
 | binds | oxoglutarate receptor 1 (OXGR1), endogenous (from UniProt Q6IYF8 1-337)
